Measured values published in PMC11773481.
These are yes or no findings as the source states them, for the method shown. In cells and extracts the contact can be indirect. Binding can be weak; no strength is given.

Molecular target: FLAG-tagged isolated KEAP1 KELCH domain
Experiment: co-IP; proteins transiently expressed in DPP8/9−/− HEK 293T cells; clarified lysates on anti-FLAG M2 agarose 1 h at 4 °C, PBS washes, 3X-FLAG peptide elution, immunoblot; VbP (10 μΜ) on cells or DTT (10 mM) on beads had no effect

binding: binds
B1: DPP8 V869C (enzyme, UniProt Q6V1X1 1-898)
chain: MWKRSEQMKIKSGKCNMAAAMETEQLGVEIFETADCEENIESQDRPKLEPFYVERYSWSQLKKLLADTRKYHGYMMAKAPHDFMFVKRNDPDGPHSDRIYYLAMSGENRENTLFYSEIPKTINRAAVLMLSWKPLLDLFQATLDYGMYSREEELLRERKRIGTVGIASYDYHQGSGTFLFQAGSGIYHVKDGGPQGFTQQPLRPNLVETSCPNIRMDPKLCPADPDWIAFIHSNDIWISNIVTREERRLTYVHNELANMEEDARSAGVATFVLQEEFDRYSGYWWCPKAETTPSGGKILRILYEENDESEVEIIHVTSPMLETRRADSFRYPKTGTANPKVTFKMSEIMIDAEGRIIDVIDKELIQPFEILFEGVEYIARAGWTPEGKYAWSILLDRSQTRLQIVLISPELFIPVEDDVMERQRLIESVPDSVTPLIIYEETTDIWINIHDIFHVFPQSHEEEIEFIFASECKTGFRHLYKITSILKESKYKRSSGGLPAPSDFKCPIKEEIAITSGEWEVLGRHGSNIQVDEVRRLVYFEGTKDSPLEHHLYVVSYVNPGEVTRLTDRGYSHSCCISQHCDFFISKYSNQKNPHCVSLYKLSSPEDDPTCKTKEFWATILDSAGPLPDYTPPEIFSFESTTGFTLYGMLYKPHDLQPGKKYPTVLFIYGGPQVQLVNNRFKGVKYFRLNTLASLGYVVVVIDNRGSCHRGLKFEGAFKYKMGQIEIDDQVEGLQYLASRYDFIDLDRVGIHGWSYGGYLSLMALMQRSDIFRVAIAGAPVTLWIFYDTGYTERYMGHPDQNEQGYYLGSVAMQAEKFPSEPNRLLLLHGFLDENVHFAHTSILLSFLVRAGKPYDLQIYPQERHSIRCPESGEHYELHLLHYLQENLGSRIAALKVI
